Taken from: PubChem BioAssay AID1053209 (Peter MacCallum Cancer Centre, 2014)
The deposit covers about 1,580 reagents; below is a part drawn at random. In the full data, 207 (13%) are marked active. 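Rows are single siRNAs; four siRNAs per gene were tested, a gene counting as confirmed only when at least two agree.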 Reagents against one gene are numbered here.

Aim: 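Gene losses that combine with doxorubicin to kill mouse bone cancer cells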 (follow-up of hits)
Cell system: mouse primary osteosarcoma cells
Knock-down reagent: single siRNA against mouse genes, 25 nM (text also states 40 nM)
Duration: about 120 h (48 h before drug, then 72 h with drug)
Challenge: doxorubicin 100 nM (about IC30-40), added 48 h after transfection, for 72 h
Detection: 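ATP-based luminescent viability, with or without doxorubicin, relative to non-targeting control NT1, mean of two replicates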
Scale: viability with doxorubicin, vs NT1: higher = more viable cells under doxorubicin; viability ratio, doxorubicin over no drug: higher = less sensitisation to doxorubicin; viability without drug, vs NT1: higher = more viable cells without drug
Active means: 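Counted as active (class LC dox) if viability falls to 0.7 of NT1 or below under doxorubicin but stays within 0.7 to 1.1 without drug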

target gene | reagent | combined effect class | viability with doxorubicin, vs NT1 | viability ratio, doxorubicin over no drug | viability without drug, vs NT1 | outcome
Runx1 (GeneID 12394) | 1 | normal viability with and without drug | 1.01 | 0.97 | 1.04 | inactive
Runx1 (GeneID 12394) | 2 | high viability only with doxorubicin | 1.1 | 1.05 | 1.05 | inactive
Runx1 (GeneID 12394) | 3 | high viability only without drug | 0.9 | 0.78 | 1.16 | inactive
Runx1 (GeneID 12394) | 4 | normal viability with and without drug | 1.03 | 1.17 | 0.88 | inactive
Socs1 (GeneID 12703) | 1 | high viability only with doxorubicin | 1.1 | 1.09 | 1.01 | inactive
Socs1 (GeneID 12703) | 2 | high viability only with doxorubicin | 1.14 | 1.12 | 1.02 | inactive
Socs1 (GeneID 12703) | 3 | normal viability with and without drug | 0.98 | 1.11 | 0.88 | inactive
Socs1 (GeneID 12703) | 4 | normal viability with and without drug | 0.84 | 0.79 | 1.06 | inactive
Rps27a (GeneID 78294) | 1 | low viability with and without drug | 0.17 | 0.5 | 0.34 | inactive
Rps27a (GeneID 78294) | 2 | low viability only with doxorubicin; normal without drug | 0.52 | 0.67 | 0.78 | active
Rps27a (GeneID 78294) | 3 | low viability with and without drug | 0.22 | 0.69 | 0.32 | inactive
Rps27a (GeneID 78294) | 4 | low viability with and without drug | 0.37 | 0.61 | 0.61 | inactive
Otp (GeneID 18420) | 1 | high viability only with doxorubicin | 1.12 | 1.12 | 1 | inactive
Otp (GeneID 18420) | 2 | low viability only with doxorubicin; normal without drug | 0.62 | 0.71 | 0.87 | active
Otp (GeneID 18420) | 3 | normal viability with and without drug | 0.86 | 0.8 | 1.07 | inactive
Otp (GeneID 18420) | 4 | normal viability with and without drug | 0.97 | 0.98 | 0.99 | inactive
Rps6kc1 (GeneID 320119) | 1 | normal viability with and without drug | 1.04 | 1.11 | 0.94 | inactive
Rps6kc1 (GeneID 320119) | 2 | normal viability with and without drug | 0.97 | 0.99 | 0.98 | inactive
Rps6kc1 (GeneID 320119) | 3 | normal viability with and without drug | 0.97 | 1 | 0.97 | inactive
Rps6kc1 (GeneID 320119) | 4 | normal viability with and without drug | 0.93 | 0.94 | 0.99 | inactive
Rps18 (GeneID 20084) | 1 | low viability with and without drug | 0.15 | 1.07 | 0.14 | inactive
Rps18 (GeneID 20084) | 2 | low viability with and without drug | 0.25 | 0.78 | 0.32 | inactive
Rps18 (GeneID 20084) | 3 | low viability only with doxorubicin; normal without drug | 0.58 | 0.76 | 0.76 | active
Rps18 (GeneID 20084) | 4 | low viability with and without drug | 0.21 | 0.68 | 0.31 | inactive
Ttk (GeneID 22137) | 1 | low viability with and without drug | 0.49 | 0.94 | 0.52 | inactive
Ttk (GeneID 22137) | 2 | normal viability with and without drug | 1 | 1 | 1 | inactive
Ttk (GeneID 22137) | 3 | normal viability with and without drug | 0.74 | 0.73 | 1.02 | inactive
Ttk (GeneID 22137) | 4 | normal viability with and without drug | 0.74 | 0.92 | 0.8 | inactive
Fbn1 (GeneID 14118) | 1 | normal viability with and without drug | 0.92 | 0.94 | 0.98 | inactive
Fbn1 (GeneID 14118) | 2 | normal viability with and without drug | 0.84 | 0.93 | 0.9 | inactive
Fbn1 (GeneID 14118) | 3 | normal viability with and without drug | 0.95 | 1.01 | 0.94 | inactive
Fbn1 (GeneID 14118) | 4 | normal viability with and without drug | 1.08 | 1.19 | 0.91 | inactive
Sf3a2 (GeneID 20222) | 1 | low viability only with doxorubicin; normal without drug | 0.58 | 0.69 | 0.84 | active
Sf3a2 (GeneID 20222) | 2 | low viability with and without drug | 0.23 | 0.37 | 0.62 | inactive
Sf3a2 (GeneID 20222) | 3 | low viability only with doxorubicin; normal without drug | 0.23 | 0.29 | 0.78 | active
Sf3a2 (GeneID 20222) | 4 | low viability only with doxorubicin; normal without drug | 0.48 | 0.63 | 0.76 | active
Nup54 (GeneID 269113) | 1 | low viability with and without drug | 0.7 | 1.06 | 0.66 | inactive
Nup54 (GeneID 269113) | 2 | normal viability with and without drug | 0.92 | 0.96 | 0.96 | inactive
Nup54 (GeneID 269113) | 3 | low viability only with doxorubicin; normal without drug | 0.46 | 0.61 | 0.76 | active
Nup54 (GeneID 269113) | 4 | low viability with and without drug | 0.58 | 1 | 0.58 | inactive
Il1r1 (GeneID 16177) | 1 | normal viability with and without drug | 1.05 | 1.02 | 1.03 | inactive
Il1r1 (GeneID 16177) | 2 | normal viability with and without drug | 1.04 | 1.04 | 1 | inactive
Il1r1 (GeneID 16177) | 3 | normal viability with and without drug | 1.06 | 1.06 | 1 | inactive
Il1r1 (GeneID 16177) | 4 | low viability only with doxorubicin; normal without drug | 0.42 | 0.55 | 0.76 | active
Hormad1 (GeneID 67981) | 1 | normal viability with and without drug | 0.99 | 1.15 | 0.86 | inactive
Hormad1 (GeneID 67981) | 2 | normal viability with and without drug | 0.78 | 0.85 | 0.92 | inactive
Hormad1 (GeneID 67981) | 3 | normal viability with and without drug | 0.8 | 0.92 | 0.87 | inactive
Hormad1 (GeneID 67981) | 4 | normal viability with and without drug | 1.01 | 1.15 | 0.88 | inactive
Atp6v0e2 (GeneID 76252) | 1 | normal viability with and without drug | 1.07 | 1.05 | 1.02 | inactive
Atp6v0e2 (GeneID 76252) | 2 | normal viability with and without drug | 1.02 | 1.4 | 0.73 | inactive
Atp6v0e2 (GeneID 76252) | 3 | normal viability with and without drug | 0.92 | 0.94 | 0.98 | inactive
Atp6v0e2 (GeneID 76252) | 4 | normal viability with and without drug | 0.98 | 0.92 | 1.07 | inactive
Perm1 (GeneID 74183) | 1 | high viability only with doxorubicin | 1.17 | 1.08 | 1.08 | inactive
Perm1 (GeneID 74183) | 2 | low viability only with doxorubicin; normal without drug | 0.7 | 0.75 | 0.93 | active
Perm1 (GeneID 74183) | 3 | normal viability with and without drug | 0.8 | 0.85 | 0.94 | inactive
Perm1 (GeneID 74183) | 4 | normal viability with and without drug | 0.72 | 0.81 | 0.89 | inactive
Mrpl15 (GeneID 27395) | 1 | high viability only without drug | 1.03 | 0.94 | 1.1 | inactive
Mrpl15 (GeneID 27395) | 2 | low viability only with doxorubicin; normal without drug | 0.66 | 0.76 | 0.87 | active
Mrpl15 (GeneID 27395) | 3 | normal viability with and without drug | 1.04 | 1.18 | 0.88 | inactive
Mrpl15 (GeneID 27395) | 4 | low viability with and without drug | 0.32 | 0.57 | 0.56 | inactive
Iscu (GeneID 66383) | 1 | low viability with and without drug | 0.22 | 0.49 | 0.45 | inactive
Iscu (GeneID 66383) | 2 | low viability with and without drug | 0.45 | 0.65 | 0.69 | inactive
Iscu (GeneID 66383) | 3 | low viability with and without drug | 0.38 | 1 | 0.38 | inactive
Iscu (GeneID 66383) | 4 | low viability with and without drug | 0.28 | 0.47 | 0.6 | inactive
Plk1 (GeneID 18817) | 1 | low viability only with doxorubicin; normal without drug | 0.51 | 0.71 | 0.72 | active
Plk1 (GeneID 18817) | 2 | normal viability with and without drug | 0.72 | 0.89 | 0.81 | inactive
Plk1 (GeneID 18817) | 3 | low viability with and without drug | 0.7 | 1 | 0.7 | inactive
Plk1 (GeneID 18817) | 4 | low viability with and without drug | 0.57 | 0.83 | 0.69 | inactive
Nup88 (GeneID 19069) | 1 | low viability only with doxorubicin; normal without drug | 0.65 | 0.9 | 0.72 | active
Nup88 (GeneID 19069) | 2 | low viability with and without drug | 0.53 | 1.08 | 0.49 | inactive
Nup88 (GeneID 19069) | 3 | low viability with and without drug | 0.55 | 1.12 | 0.49 | inactive
Nup88 (GeneID 19069) | 4 | low viability with and without drug | 0.41 | 0.71 | 0.58 | inactive
Bad (GeneID 12015) | 1 | normal viability with and without drug | 1 | 0.96 | 1.04 | inactive
Bad (GeneID 12015) | 2 | normal viability with and without drug | 1.06 | 1 | 1.06 | inactive
Bad (GeneID 12015) | 3 | normal viability with and without drug | 0.99 | 0.99 | 1 | inactive
Bad (GeneID 12015) | 4 | normal viability with and without drug | 0.82 | 0.9 | 0.91 | inactive

Taken from above:
Ttk (GeneID 22137) #2, viability ratio, doxorubicin over no drug: 1
Under “viability without drug, vs NT1”, Rps6kc1 (GeneID 320119) #1 has 0.94
Under “viability with doxorubicin, vs NT1”, Nup54 (GeneID 269113) #4 reads 0.58
Nup88 (GeneID 19069) #4, viability without drug, vs NT1: 0.58
Hormad1 (GeneID 67981) #3, viability without drug, vs NT1 → 0.87
Ttk (GeneID 22137) #1, viability ratio, doxorubicin over no drug: 0.94
